## Primary screen of a compound library

Sequences of proteins named here, by UniProt entry; tags and fusion partners are left off. Residues count along the entry.
UniProt P9WNZ1, whole entry: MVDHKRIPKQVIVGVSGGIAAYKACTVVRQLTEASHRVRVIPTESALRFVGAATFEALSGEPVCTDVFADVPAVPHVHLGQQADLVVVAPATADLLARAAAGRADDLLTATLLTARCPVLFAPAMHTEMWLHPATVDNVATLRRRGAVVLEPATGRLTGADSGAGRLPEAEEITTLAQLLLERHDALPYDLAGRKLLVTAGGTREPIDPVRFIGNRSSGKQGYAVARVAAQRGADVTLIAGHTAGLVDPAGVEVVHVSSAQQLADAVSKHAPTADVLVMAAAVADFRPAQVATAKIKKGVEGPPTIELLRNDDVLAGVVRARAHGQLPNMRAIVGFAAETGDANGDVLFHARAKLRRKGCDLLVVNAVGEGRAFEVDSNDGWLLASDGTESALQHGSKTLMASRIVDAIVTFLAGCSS
UniProt I6X8D2, whole entry: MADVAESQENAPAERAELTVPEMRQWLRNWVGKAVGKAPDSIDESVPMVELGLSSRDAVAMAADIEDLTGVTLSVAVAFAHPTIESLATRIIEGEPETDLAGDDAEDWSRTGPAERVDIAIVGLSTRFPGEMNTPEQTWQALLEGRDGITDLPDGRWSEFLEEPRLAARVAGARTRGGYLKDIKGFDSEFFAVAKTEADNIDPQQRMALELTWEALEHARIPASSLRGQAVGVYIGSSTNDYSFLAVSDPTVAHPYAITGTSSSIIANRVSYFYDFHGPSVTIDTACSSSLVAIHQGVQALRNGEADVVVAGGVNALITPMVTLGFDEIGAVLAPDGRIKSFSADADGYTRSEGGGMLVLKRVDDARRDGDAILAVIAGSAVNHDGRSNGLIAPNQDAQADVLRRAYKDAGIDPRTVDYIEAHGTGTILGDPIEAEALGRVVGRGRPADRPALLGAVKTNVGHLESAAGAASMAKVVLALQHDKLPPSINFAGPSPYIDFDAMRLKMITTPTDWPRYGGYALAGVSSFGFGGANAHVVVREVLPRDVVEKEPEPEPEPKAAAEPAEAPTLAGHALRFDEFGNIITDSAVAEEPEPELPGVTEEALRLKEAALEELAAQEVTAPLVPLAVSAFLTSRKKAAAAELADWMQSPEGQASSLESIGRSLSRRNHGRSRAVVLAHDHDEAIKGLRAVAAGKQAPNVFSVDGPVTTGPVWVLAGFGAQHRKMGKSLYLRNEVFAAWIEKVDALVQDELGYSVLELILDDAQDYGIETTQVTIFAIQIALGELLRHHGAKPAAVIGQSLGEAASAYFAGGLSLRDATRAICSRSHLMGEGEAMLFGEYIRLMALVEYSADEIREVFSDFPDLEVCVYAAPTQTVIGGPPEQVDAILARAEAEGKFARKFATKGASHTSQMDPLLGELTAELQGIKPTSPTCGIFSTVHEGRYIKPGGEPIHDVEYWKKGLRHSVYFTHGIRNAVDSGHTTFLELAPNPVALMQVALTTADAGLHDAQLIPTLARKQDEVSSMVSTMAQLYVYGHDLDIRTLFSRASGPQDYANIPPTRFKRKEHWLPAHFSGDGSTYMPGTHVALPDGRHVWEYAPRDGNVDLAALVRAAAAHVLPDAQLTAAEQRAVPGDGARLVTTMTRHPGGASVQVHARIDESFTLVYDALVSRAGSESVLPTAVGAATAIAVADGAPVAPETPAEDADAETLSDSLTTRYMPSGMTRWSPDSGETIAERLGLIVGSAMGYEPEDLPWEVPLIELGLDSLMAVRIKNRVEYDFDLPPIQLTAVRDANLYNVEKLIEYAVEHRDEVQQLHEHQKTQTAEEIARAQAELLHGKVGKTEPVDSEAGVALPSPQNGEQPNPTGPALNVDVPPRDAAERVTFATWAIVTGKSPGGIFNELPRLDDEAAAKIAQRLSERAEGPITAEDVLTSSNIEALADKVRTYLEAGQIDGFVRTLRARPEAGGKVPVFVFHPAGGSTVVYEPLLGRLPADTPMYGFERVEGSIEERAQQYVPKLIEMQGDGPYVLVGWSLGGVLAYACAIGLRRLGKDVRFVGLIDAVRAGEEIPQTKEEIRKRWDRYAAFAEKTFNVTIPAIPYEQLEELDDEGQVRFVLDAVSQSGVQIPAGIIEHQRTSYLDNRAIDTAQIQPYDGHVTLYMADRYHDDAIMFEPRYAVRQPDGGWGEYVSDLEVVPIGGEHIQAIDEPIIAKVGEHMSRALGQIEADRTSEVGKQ
UniProt P9WPC5, whole entry: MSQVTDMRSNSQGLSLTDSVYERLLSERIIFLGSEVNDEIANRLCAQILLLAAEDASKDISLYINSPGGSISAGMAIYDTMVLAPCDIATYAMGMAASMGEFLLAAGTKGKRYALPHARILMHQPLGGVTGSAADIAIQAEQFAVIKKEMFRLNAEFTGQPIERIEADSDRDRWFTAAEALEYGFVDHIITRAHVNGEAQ
UniProt P9WPC3, whole entry partner: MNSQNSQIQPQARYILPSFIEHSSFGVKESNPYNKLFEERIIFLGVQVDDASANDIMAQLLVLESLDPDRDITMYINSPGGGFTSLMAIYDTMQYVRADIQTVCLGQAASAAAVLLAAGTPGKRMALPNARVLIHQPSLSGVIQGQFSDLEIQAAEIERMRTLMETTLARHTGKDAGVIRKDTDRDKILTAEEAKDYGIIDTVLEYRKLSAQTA
UniProt A4I591, 1-473: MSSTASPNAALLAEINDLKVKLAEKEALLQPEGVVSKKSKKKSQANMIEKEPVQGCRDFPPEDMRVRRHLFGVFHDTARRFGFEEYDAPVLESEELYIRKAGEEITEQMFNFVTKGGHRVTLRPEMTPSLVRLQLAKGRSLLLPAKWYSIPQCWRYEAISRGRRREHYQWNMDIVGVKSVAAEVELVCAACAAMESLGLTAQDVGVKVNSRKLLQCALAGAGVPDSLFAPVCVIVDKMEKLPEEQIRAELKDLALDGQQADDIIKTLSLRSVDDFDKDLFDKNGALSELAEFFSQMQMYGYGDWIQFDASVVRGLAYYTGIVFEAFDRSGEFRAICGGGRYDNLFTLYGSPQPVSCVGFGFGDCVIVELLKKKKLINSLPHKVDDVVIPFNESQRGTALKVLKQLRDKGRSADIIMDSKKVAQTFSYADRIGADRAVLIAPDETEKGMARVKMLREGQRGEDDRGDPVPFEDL
UniProt P9WFT3, whole entry: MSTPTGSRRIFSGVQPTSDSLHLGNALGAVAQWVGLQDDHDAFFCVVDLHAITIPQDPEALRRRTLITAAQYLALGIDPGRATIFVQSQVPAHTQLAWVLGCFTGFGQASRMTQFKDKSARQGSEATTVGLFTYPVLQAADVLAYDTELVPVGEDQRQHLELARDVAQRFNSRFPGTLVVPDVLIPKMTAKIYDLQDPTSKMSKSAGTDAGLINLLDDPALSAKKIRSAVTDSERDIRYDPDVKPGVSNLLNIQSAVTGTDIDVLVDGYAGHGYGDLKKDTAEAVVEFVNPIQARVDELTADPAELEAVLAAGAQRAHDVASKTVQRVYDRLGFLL

Measurements from “University of Dundee, Small-Polar-MMV Screening Library” (2021), ChEMBL document CHEMBL3988442.

CoaBC: 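Enzyme assay of CoaBC with a phosphate dye (Biomol Green) read at 650 nm. Target: Coenzyme A biosynthesis protein CoaBC, Mycobacterium tuberculosis (UniProt P9WNZ1). Compounds at 30 µM. Direction is inferred from only a few compounds that gave an IC50; most scored high, so higher reads as stronger inhibition. Most strong results did not repeat in a second test. Size under these conditions: about 67,000 compounds, about 40 of them at 50% or above in at least one test.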
Pks13 thioesterase: 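Polyketide synthase Pks13, Mycobacterium tuberculosis (UniProt I6X8D2). Enzyme assay of the thioesterase domain of polyketide synthase 13; the read-out is not stated. Tested at 30 µM. The record gives no direction; the compounds picked for IC50 retests had high values, so higher reads as stronger inhibition. Size under these conditions: about 67,000 compounds, about 300 of them at 50% or above in at least one test.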
ClpP1P2: 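ClpP1P2, Mycobacterium tuberculosis (UniProt P9WPC5 and UniProt P9WPC3). Protease assay of ClpP1P2, read by the AMC dye that it sets free. Concentration: 50 µM. Higher reads as stronger inhibition, judged from the few compounds that gave an IC50. Most other retested compounds had strongly negative values. Of about 69,000 compounds tested this way, about 10 (0.015%) reached 50% or more in at least one test.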
LiHisRS: 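Enzyme assay of histidyl-tRNA synthetase; the read-out is not stated. Target: Histidine-tRNA ligase, Leishmania infantum (UniProt A4I591). Compounds at 30 µM. Higher reads as stronger inhibition (inferred: compounds with an IC50 in retests scored well above the rest). The assay is labelled LdHisRS but filed under L. infantum. Size under these conditions: about 69,000 compounds, about 410 of them at 50% or above in at least one test.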
MtTrpRS: 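Enzyme assay of tryptophanyl-tRNA synthetase; the read-out is not stated. Target: Tryptophan-tRNA ligase, Mycobacterium tuberculosis (UniProt P9WFT3). Compounds at 10 µM. Higher most likely means stronger inhibition; the record gives no direction and few retests gave an IC50. Size under these conditions: about 65,000 compounds, about 64 of them at 50% or above in at least one test.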

Values are the deposited “Percent Effect”, in %. The record does not define 0% and 100%; most values in the screen are far below 50% and negative numbers occur (in some assays of this library far below -100). The compounds are a random part of those screened. Two or more numbers in one place are separate tests of the same structure; such repeats can differ widely.

* CN(Cc1ccc(Br)c2cccnc12)S(C)(=O)=O : CoaBC: -4.251%; Pks13 thioesterase: -22.58%; ClpP1P2: -5.779%; LiHisRS: -8.046%; MtTrpRS: -5.302%
* COc1ccccc1CN(Cc1cccc(C)c1)C(=O)[C@@H](N)CC(=O)O : CoaBC: 0.3659%; Pks13 thioesterase: -11.24%; ClpP1P2: -2.616%; LiHisRS: 17.58%; MtTrpRS: 2.252%
* CC(Cn1ccnc1)NC(=O)Nc1ccccn1 (stereo not given) : CoaBC: 4.092%; ClpP1P2: -20%; LiHisRS: 11.01%; MtTrpRS: 21.53%
* CC(=O)N1CCCC(c2nc(N(C)C)ncc2-c2ccccc2)C1 (stereo not given) : CoaBC: -3.398%; Pks13 thioesterase: -58.8%; ClpP1P2: -21.86%; LiHisRS: 8.571%; MtTrpRS: 9.514%
* c1cncc(-c2ccc3c(c2)CCC32CCNCC2)c1 : CoaBC: -46.93%; ClpP1P2: 7.886%; LiHisRS: 20%; MtTrpRS: 1.281%
* Cc1c(C2CCCN(C(=O)c3ccncc3)C2)n2c(nc1=O)CCC2 (stereo not given) : CoaBC: 1.225%; Pks13 thioesterase: 21.26%; ClpP1P2: -0.8603%; LiHisRS: 19.79%
* Cc1ccc(CN2CCN(C(=O)c3ccc(CO)cc3)C(C)C2=O)cc1 (stereo not given) : CoaBC: 0.4592%; Pks13 thioesterase: -12.64%; ClpP1P2: -9.853%; LiHisRS: 6.122%; MtTrpRS: 6.253%
* Cc1cnn(C(C)C2CC2)c1NC(=O)c1ncccc1O (stereo not given) : CoaBC: 0.7937%; Pks13 thioesterase: -3.626%; ClpP1P2: -3.532%; LiHisRS: 2.778%; MtTrpRS: 10.94%
* CCCC(=O)N(C)Cc1cccc(OC(C)C)c1 : CoaBC: 2.778%; Pks13 thioesterase: -5.507%; ClpP1P2: -6.778%; LiHisRS: -6.25%; MtTrpRS: -5.21%
* COc1cccc(N2CCC(CNCc3cccc(C#N)c3)C2)c1 (stereo not given) : CoaBC: 21.05% and 8.763%; Pks13 thioesterase: -0.2578%; ClpP1P2: -6.782%; LiHisRS: 17.86%; MtTrpRS: 0.0684%
* CNC(=O)[C@H]1C[C@@H]2CN(C(=O)c3cscn3)C[C@@H]2N1S(C)(=O)=O : CoaBC: 1.396%; Pks13 thioesterase: -14.85%; ClpP1P2: -4.423%; LiHisRS: 22.64%; MtTrpRS: 2.204%
* COc1ccc(C(=O)N2CCCC(n3cncn3)C2)nn1 (stereo not given) : CoaBC: 6.335%; Pks13 thioesterase: -13.24%; ClpP1P2: 0.5114%; LiHisRS: -12.28%; MtTrpRS: 11.41%
* CN(Cc1ccco1)[C@@H]1CN(Cc2ccco2)[C@@H]2CCCO[C@H]12 : CoaBC: 5.44%; Pks13 thioesterase: -22.16%; ClpP1P2: 1.79%; LiHisRS: 15.33%; MtTrpRS: -1.938%
* Cc1ccc(-c2c(-c3ccccc3)ncn2CCCN2CCOCC2)o1 : CoaBC: -13.31%; Pks13 thioesterase: -44.41%; ClpP1P2: -7.157%; LiHisRS: 18.42%; MtTrpRS: -3.43%
* CC(C)OCc1noc(C2CC=CC2)n1 : CoaBC: 6.717%; Pks13 thioesterase: -8.271%; ClpP1P2: -6.103%; LiHisRS: 18.99%; MtTrpRS: -3.525%
* CCN1CCN(Cc2nc(CC(C)C)no2)CC1 : CoaBC: 7.928%; Pks13 thioesterase: -37.94%; ClpP1P2: -28.04%; LiHisRS: 14.68%; MtTrpRS: 23.3%
* Cn1cc(CN2CCC(c3ccncc3)CC2)cn1 : CoaBC: 4.993%; Pks13 thioesterase: 3.326%; ClpP1P2: -4.977%; LiHisRS: 11.59%; MtTrpRS: -8.155%
* O=C(NCCC1=CCCCC1)c1ccc(-n2cccc2)nc1 : CoaBC: 1.699%; Pks13 thioesterase: -1.918%; ClpP1P2: -3.094%; LiHisRS: 1.98%
* CCCNC(=O)c1cc(Br)c2c(c1)OCCO2 : CoaBC: 4.551%; Pks13 thioesterase: -13.75%; ClpP1P2: -9.83%; LiHisRS: 14.52%; MtTrpRS: -2.484%